The record followed here is paper PMC2391170.

Common to all, as to test: two-hybrid; AD (pGAD-C(1)) and BD (pGBD-C(1)) fusions in yeast PJ69-4; dual transformants tested on media lacking leucine, tryptophan and adenine; positive if all tested colonies (4 to 10) grew; both combinations of clones tested whenever possible
Assay [1] addresses T1, AtCPSF73-II (Arabidopsis) (UniProt Q8GUU3).
T1 sequence: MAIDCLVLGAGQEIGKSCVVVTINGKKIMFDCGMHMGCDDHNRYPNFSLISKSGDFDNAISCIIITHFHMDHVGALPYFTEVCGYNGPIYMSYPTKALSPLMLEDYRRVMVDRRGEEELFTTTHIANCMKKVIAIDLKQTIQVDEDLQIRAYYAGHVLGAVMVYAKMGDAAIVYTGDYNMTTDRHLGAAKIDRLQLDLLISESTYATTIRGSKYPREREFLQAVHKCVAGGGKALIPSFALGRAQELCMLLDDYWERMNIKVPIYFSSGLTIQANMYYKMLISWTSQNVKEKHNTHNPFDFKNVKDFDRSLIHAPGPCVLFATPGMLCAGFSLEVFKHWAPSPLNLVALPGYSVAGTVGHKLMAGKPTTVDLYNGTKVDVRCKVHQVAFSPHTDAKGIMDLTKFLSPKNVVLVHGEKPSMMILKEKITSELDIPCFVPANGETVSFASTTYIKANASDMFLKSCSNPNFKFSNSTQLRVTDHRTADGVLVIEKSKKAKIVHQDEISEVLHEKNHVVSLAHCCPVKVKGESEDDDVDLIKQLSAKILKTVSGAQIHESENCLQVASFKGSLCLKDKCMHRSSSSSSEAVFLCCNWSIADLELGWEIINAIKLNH

The next assay concerns the target T2, AtCPSF73-I (Arabidopsis) (UniProt Q9C952).
T2 sequence: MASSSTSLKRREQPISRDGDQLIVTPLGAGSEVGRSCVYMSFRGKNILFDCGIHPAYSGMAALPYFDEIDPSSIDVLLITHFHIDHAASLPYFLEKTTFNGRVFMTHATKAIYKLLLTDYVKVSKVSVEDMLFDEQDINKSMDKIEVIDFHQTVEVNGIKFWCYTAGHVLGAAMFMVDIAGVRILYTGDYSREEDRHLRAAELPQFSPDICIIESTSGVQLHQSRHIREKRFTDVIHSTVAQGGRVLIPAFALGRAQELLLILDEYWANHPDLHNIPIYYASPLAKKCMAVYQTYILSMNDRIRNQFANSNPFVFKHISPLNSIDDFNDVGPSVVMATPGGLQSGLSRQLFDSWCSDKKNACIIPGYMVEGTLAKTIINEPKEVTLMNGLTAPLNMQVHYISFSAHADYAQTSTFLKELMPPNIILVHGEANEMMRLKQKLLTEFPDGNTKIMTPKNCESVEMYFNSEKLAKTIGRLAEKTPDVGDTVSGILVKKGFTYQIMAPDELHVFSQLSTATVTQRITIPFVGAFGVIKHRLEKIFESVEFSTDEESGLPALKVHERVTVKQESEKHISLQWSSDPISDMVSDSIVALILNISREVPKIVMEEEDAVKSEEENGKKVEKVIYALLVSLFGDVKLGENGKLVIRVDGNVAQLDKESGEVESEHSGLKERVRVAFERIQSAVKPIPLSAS

The target of the next assay is T3, AtCPSF30 (Arabidopsis) (UniProt A9LNK9).
T3 sequence: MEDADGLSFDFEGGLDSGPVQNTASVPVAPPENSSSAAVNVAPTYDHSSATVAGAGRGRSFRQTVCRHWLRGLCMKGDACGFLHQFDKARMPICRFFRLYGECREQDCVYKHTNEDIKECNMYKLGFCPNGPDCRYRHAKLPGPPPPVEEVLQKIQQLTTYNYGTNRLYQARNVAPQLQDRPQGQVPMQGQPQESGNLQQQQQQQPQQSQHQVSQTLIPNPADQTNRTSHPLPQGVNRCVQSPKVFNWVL

In another assay the target is T4, AtPCFS1 (Arabidopsis) (UniProt Q9C710).
T4 sequence: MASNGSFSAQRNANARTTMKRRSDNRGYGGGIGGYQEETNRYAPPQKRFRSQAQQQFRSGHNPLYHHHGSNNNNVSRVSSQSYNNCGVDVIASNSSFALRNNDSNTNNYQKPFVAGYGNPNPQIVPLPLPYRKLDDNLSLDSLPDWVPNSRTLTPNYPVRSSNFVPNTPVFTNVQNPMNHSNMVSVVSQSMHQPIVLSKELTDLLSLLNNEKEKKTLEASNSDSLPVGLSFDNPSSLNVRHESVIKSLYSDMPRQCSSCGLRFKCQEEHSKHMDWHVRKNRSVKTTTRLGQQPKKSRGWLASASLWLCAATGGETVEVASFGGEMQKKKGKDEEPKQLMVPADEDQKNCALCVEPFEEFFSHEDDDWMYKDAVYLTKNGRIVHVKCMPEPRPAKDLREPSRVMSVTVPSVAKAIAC

In another assay the target is T5, AtPCFS4 (Arabidopsis) (UniProt Q0WPF2).
T5 sequence: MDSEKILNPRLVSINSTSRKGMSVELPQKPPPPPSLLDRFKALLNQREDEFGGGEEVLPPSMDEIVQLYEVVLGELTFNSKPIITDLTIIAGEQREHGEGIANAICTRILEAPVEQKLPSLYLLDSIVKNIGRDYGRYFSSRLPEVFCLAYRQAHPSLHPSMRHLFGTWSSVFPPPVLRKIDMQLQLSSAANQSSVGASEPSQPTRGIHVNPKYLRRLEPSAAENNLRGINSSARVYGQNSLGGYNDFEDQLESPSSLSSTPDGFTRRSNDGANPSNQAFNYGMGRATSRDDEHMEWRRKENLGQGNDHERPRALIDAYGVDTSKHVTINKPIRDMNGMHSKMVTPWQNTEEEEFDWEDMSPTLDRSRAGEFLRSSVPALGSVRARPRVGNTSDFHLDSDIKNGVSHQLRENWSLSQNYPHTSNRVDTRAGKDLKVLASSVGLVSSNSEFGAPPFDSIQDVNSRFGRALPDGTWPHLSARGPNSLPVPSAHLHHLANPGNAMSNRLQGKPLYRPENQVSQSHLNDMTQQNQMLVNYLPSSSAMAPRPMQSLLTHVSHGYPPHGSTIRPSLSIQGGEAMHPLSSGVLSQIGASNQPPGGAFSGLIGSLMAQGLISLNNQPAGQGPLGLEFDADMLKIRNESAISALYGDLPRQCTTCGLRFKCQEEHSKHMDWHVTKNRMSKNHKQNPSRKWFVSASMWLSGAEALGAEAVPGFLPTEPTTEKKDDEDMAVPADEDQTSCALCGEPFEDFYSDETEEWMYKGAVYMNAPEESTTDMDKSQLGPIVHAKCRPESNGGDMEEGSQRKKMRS

In another assay the target is T6, AtPCFS5 (Arabidopsis) (UniProt Q9FIX8).
T6 sequence: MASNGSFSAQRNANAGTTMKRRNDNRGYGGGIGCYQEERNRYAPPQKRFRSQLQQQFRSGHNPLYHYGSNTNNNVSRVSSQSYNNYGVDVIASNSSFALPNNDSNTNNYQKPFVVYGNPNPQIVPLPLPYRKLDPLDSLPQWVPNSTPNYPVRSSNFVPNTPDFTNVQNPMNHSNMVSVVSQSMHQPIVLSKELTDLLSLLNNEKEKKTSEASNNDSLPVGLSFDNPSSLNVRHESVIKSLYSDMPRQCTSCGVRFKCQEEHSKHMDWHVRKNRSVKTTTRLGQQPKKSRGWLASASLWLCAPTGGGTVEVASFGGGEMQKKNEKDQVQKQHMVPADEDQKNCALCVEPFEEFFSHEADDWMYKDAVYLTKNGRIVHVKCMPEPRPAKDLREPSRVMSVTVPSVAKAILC

Results are given in words; binding and its absence hold for the method and conditions named. Some entries that bind do so weakly or less than the wild type.

B1: AtCPSF73-II (protein, UniProt Q8GUU3 1-613)
chain: MAIDCLVLGAGQEIGKSCVVVTINGKKIMFDCGMHMGCDDHNRYPNFSLISKSGDFDNAISCIIITHFHMDHVGALPYFTEVCGYNGPIYMSYPTKALSPLMLEDYRRVMVDRRGEEELFTTTHIANCMKKVIAIDLKQTIQVDEDLQIRAYYAGHVLGAVMVYAKMGDAAIVYTGDYNMTTDRHLGAAKIDRLQLDLLISESTYATTIRGSKYPREREFLQAVHKCVAGGGKALIPSFALGRAQELCMLLDDYWERMNIKVPIYFSSGLTIQANMYYKMLISWTSQNVKEKHNTHNPFDFKNVKDFDRSLIHAPGPCVLFATPGMLCAGFSLEVFKHWAPSPLNLVALPGYSVAGTVGHKLMAGKPTTVDLYNGTKVDVRCKVHQVAFSPHTDAKGIMDLTKFLSPKNVVLVHGEKPSMMILKEKITSELDIPCFVPANGETVSFASTTYIKANASDMFLKSCSNPNFKFSNSTQLRVTDHRTADGVLVIEKSKKAKIVHQDEISEVLHEKNHVVSLAHCCPVKVKGESEDDDVDLIKQLSAKILKTVSGAQIHESENCLQVASFKGSLCLKDKCMHRSSSSSSEAVFLCCNWSIADLELGWEIINAIKLNH
B1: the binding result in assay [1] is listed as “no binding”.

B2: AtCPSF73-I (protein, UniProt Q9C952 1-693)
chain: MASSSTSLKRREQPISRDGDQLIVTPLGAGSEVGRSCVYMSFRGKNILFDCGIHPAYSGMAALPYFDEIDPSSIDVLLITHFHIDHAASLPYFLEKTTFNGRVFMTHATKAIYKLLLTDYVKVSKVSVEDMLFDEQDINKSMDKIEVIDFHQTVEVNGIKFWCYTAGHVLGAAMFMVDIAGVRILYTGDYSREEDRHLRAAELPQFSPDICIIESTSGVQLHQSRHIREKRFTDVIHSTVAQGGRVLIPAFALGRAQELLLILDEYWANHPDLHNIPIYYASPLAKKCMAVYQTYILSMNDRIRNQFANSNPFVFKHISPLNSIDDFNDVGPSVVMATPGGLQSGLSRQLFDSWCSDKKNACIIPGYMVEGTLAKTIINEPKEVTLMNGLTAPLNMQVHYISFSAHADYAQTSTFLKELMPPNIILVHGEANEMMRLKQKLLTEFPDGNTKIMTPKNCESVEMYFNSEKLAKTIGRLAEKTPDVGDTVSGILVKKGFTYQIMAPDELHVFSQLSTATVTQRITIPFVGAFGVIKHRLEKIFESVEFSTDEESGLPALKVHERVTVKQESEKHISLQWSSDPISDMVSDSIVALILNISREVPKIVMEEEDAVKSEEENGKKVEKVIYALLVSLFGDVKLGENGKLVIRVDGNVAQLDKESGEVESEHSGLKERVRVAFERIQSAVKPIPLSAS
Regarding B2, the binding result (with AtCPSF73-I (Arabidopsis); in assay [1]) was “no binding” in each case.

B3: AtCLPS3 (protein, UniProt Q9SR06 1-444)
chain: MAYGGPSMNPPALSGAVPGSANLKQVKLERESELRIEVSEEPLRLRVVNGTAEIFGSELPPEIWRTFPPRMKFAVFTWYGATIEMDGVTETDYTADETPMVSYINVHAILDARRRFAKASTSNDPESSQGPRVIVVGPTDSGKSTLTKMLLSWAAKQGWRPTFVDLDVGQGSITIPGSIAAAPIEMPLDPVEGFPLDMALVYYYGHASPNMNVELYKALVKELAQVLEKQFVGNPESRAAGMVINTMGWIEGIGYELLLHAIDTFNASVVLVLGQEKLFSRLKDVLRSKSNVDVVKLHKSGGVVARVKEVRKRSRNFKIQEYFYGLSKELSPYANTSSFSDLQVFRIGGGPQAPKSALPAGSTSVSNPLRVTPVNIDDRDLLHSVLAVSYAEEPDQIISSNVSGFVYVTEVNVQKKKITYLAPSPGTLPSKLLVAGSLAWLESV
B3: the binding entry in the assay with AtCPSF30 (Arabidopsis), with AtPCFS1 (Arabidopsis), in the assay with AtPCFS4 (Arabidopsis) and with AtPCFS5 (Arabidopsis) was “binds” throughout.
